In the experiment the target is Fumarate hydratase (human (endogenous in HCT116)) (UniProt P07954). In words: co-IP; HCT116 cells lysed in IP lysis buffer with phosphorylase inhibitor and PMSF; supernatant, antibody and protein A/G agarose beads overnight at 4 °C; immunoblot; also done in FH knockdown HCT116 cells (binding of Ran to SREBF1 and SREBF2 increased). On the technique in general: A western blot detects proteins with antibodies after separation by electrophoresis.

Amino acid sequences for entries named in this document (tags omitted). Residues count along the entry.
UniProt P07954, residues 45-510: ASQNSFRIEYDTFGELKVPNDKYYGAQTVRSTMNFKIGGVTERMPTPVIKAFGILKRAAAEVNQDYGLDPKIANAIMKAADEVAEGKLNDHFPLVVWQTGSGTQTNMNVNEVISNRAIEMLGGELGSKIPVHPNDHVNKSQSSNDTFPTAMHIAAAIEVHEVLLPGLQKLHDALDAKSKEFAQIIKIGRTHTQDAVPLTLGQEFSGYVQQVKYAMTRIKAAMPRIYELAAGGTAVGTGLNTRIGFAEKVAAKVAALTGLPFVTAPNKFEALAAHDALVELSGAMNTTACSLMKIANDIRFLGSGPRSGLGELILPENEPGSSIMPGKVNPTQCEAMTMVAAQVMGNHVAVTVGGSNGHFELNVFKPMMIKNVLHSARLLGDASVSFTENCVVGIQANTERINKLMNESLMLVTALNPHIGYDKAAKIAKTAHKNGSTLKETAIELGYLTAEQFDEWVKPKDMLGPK
UniProt P20823: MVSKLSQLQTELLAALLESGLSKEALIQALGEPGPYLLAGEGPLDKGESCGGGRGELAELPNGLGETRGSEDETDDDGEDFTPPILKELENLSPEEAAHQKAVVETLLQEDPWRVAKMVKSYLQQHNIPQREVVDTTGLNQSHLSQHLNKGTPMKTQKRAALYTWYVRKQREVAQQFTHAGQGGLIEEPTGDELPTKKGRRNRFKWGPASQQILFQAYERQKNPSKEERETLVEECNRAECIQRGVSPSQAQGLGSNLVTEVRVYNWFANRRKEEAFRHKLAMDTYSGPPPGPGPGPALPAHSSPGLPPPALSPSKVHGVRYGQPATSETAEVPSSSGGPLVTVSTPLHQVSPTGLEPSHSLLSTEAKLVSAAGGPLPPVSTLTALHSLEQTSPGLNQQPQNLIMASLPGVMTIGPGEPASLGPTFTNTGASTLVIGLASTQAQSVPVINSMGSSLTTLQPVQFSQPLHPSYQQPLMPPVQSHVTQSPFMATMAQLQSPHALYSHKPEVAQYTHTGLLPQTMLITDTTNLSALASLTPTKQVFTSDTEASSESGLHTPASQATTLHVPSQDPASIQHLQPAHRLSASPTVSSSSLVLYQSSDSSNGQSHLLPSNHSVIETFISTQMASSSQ

These are yes or no findings as the source states them, for the method shown. Binding seen in cells or lysates may run through a third protein.

We go through one substance from publication PMC10887080.

Take HNF1A (from UniProt P20823 1-631): the binding entry was “no binding”.
